{"source": "PubChem BioAssay AID1259405 (NCATS, 2018)", "aim": "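Knock-downs that lift recombinant protein yield in hamster ovary cells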 (primary screen)", "cells": "Chinese hamster CHO-K1 ovary cells with stable secreted eGFP expression", "reagents": "single siRNA against mouse genes, 0.8 pmol siRNA per well (2 µl of 400 nM stock)", "timing": "3 days", "detection": "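Per-well intracellular GFP measured by laser scanning cytometry, plus viability from ATP luminescence, each relative to plate median of non-targeting control wells, in %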", "reading the numbers": "GFP, % of control: higher = more GFP per well, higher productivity; viability (ATP), % of control: higher = more viable cells (more ATP)", "call rule": "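Called active when intracellular GFP, relative to negative control, is at or above 120%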", "note": "The whole screen tested about 50,000 reagents; this is a random part of them. In the full data, about 4,000 (8%) were called active. 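Mouse siRNA library applied to hamster cells; one well for each siRNA.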 The numbers tell different reagents against one gene apart. No sequences are given here."}
{"gene":"Defb14","reagent":1,"GFP, % of control":43.1,"viability (ATP), % of control":43.9,"outcome":"inactive"}
{"gene":"Defb14","reagent":2,"GFP, % of control":86.9,"viability (ATP), % of control":84.1,"outcome":"inactive"}
{"gene":"Defb14","reagent":3,"GFP, % of control":87.9,"viability (ATP), % of control":70,"outcome":"inactive"}
{"gene":"Lnx1","reagent":1,"GFP, % of control":84.5,"viability (ATP), % of control":74.9,"outcome":"inactive"}
{"gene":"Lnx1","reagent":2,"GFP, % of control":96.7,"viability (ATP), % of control":93,"outcome":"inactive"}
{"gene":"Lnx1","reagent":3,"GFP, % of control":150,"viability (ATP), % of control":164,"outcome":"active"}
{"gene":"Krt7","reagent":1,"GFP, % of control":34.1,"viability (ATP), % of control":48.5,"outcome":"inactive"}
{"gene":"Krt7","reagent":2,"GFP, % of control":86.8,"viability (ATP), % of control":85.5,"outcome":"inactive"}
{"gene":"Ap1m1","reagent":1,"GFP, % of control":95,"viability (ATP), % of control":137,"outcome":"inactive"}
{"gene":"Ap1m1","reagent":2,"GFP, % of control":64,"viability (ATP), % of control":57.5,"outcome":"inactive"}
{"gene":"Cinp","reagent":1,"GFP, % of control":34.4,"viability (ATP), % of control":38.7,"outcome":"inactive"}
{"gene":"Cinp","reagent":2,"GFP, % of control":48.4,"viability (ATP), % of control":46.1,"outcome":"inactive"}
{"gene":"Cinp","reagent":3,"GFP, % of control":84.4,"viability (ATP), % of control":96.5,"outcome":"inactive"}
{"gene":"Epas1","reagent":1,"GFP, % of control":77.9,"viability (ATP), % of control":76.3,"outcome":"inactive"}
{"gene":"Epas1","reagent":2,"GFP, % of control":99.9,"viability (ATP), % of control":116,"outcome":"inactive"}

2 entries from above, set out differently.
gene,reagent,"GFP, % of control","viability (ATP), % of control",outcome
Ap1m1,1,95,137,inactive
Ap1m1,2,64,57.5,inactive

Next results follow:
{"gene":"Adamtsl1","reagent":1,"GFP, % of control":64.8,"viability (ATP), % of control":53.6,"outcome":"inactive"}
{"gene":"Adamtsl1","reagent":2,"GFP, % of control":100,"viability (ATP), % of control":82.7,"outcome":"inactive"}
{"gene":"Adamtsl1","reagent":3,"GFP, % of control":79.1,"viability (ATP), % of control":75.6,"outcome":"inactive"}
{"gene":"Ctsh","reagent":1,"GFP, % of control":102,"viability (ATP), % of control":112,"outcome":"inactive"}
{"gene":"Ctsh","reagent":2,"GFP, % of control":51.3,"viability (ATP), % of control":55.4,"outcome":"inactive"}
{"gene":"Ctsh","reagent":3,"GFP, % of control":78.8,"viability (ATP), % of control":70.8,"outcome":"inactive"}
{"gene":"Or5p57","reagent":1,"GFP, % of control":83.2,"viability (ATP), % of control":52,"outcome":"inactive"}
{"gene":"Or5p57","reagent":2,"GFP, % of control":75.6,"viability (ATP), % of control":80.1,"outcome":"inactive"}
{"gene":"Or5p57","reagent":3,"GFP, % of control":45.9,"viability (ATP), % of control":42.4,"outcome":"inactive"}
{"gene":"Grid1","reagent":1,"GFP, % of control":50.7,"viability (ATP), % of control":30.3,"outcome":"inactive"}
{"gene":"Grid1","reagent":2,"GFP, % of control":68.5,"viability (ATP), % of control":66.9,"outcome":"inactive"}
{"gene":"Grid1","reagent":3,"GFP, % of control":44.4,"viability (ATP), % of control":81.4,"outcome":"inactive"}
